Laboratory results reported in the supplement of paper PMC8728848.
Some of the results follow.

What was measured:
Test in all cases: glycan array binding signal (z-score within array); higher = stronger binding
Conditions in all cases: glycan notation: IUPAC condensed, linker removed
[1] = target: Neu5Ac(a2-6)Gal(b1-3)GlcNAc(b1-3)[Gal(b1-4)GlcNAc(b1-6)]Gal(b1-4)Glc
Method in brief: (§1)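 The binding signal is a Z-score computed within each array. Data were drawn from 3228 arrays in the Consortium for Functional Glycomics database, restricted to those with a known protein sequence. Scores were averaged over arrays of the same protein sequence at different concentrations or buffers, and over linkers, and negative values can be taken as non-binding.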

Neu5Ac(a2-6)Gal(b1-4)Glc = target: Neu5Ac(a2-6)Gal(b1-4)Glc
Method in brief: as §1

[2] = target: Neu5Ac(a2-6)Gal(b1-4)GlcNAc
Method in brief: as §1

[3] = target: Neu5Ac(a2-6)Gal(b1-4)GlcNAc(b1-2)Man
Method in brief: as §1

[4] = target: Neu5Ac(a2-6)Gal(b1-4)GlcNAc(b1-2)Man(a1-3)Man(b1-4)GlcNAc(b1-4)GlcNAc
Method in brief: as §1

[5] = target: Neu5Ac(a2-6)Gal(b1-4)GlcNAc(b1-2)Man(a1-3)[Gal(b1-4)GlcNAc(b1-2)Man(a1-6)]Man(b1-4)GlcNAc(b1-4)GlcNAc
Method in brief: as §1

[6] = target: Neu5Ac(a2-6)Gal(b1-4)GlcNAc(b1-2)Man(a1-3)[GlcNAc(b1-2)Man(a1-6)]Man(b1-4)GlcNAc(b1-4)GlcNAc
Method in brief: as §1

[7] = target: Neu5Ac(a2-6)Gal(b1-4)GlcNAc(b1-2)Man(a1-3)[GlcNAc(b1-4)][Neu5Ac(a2-6)Gal(b1-4)GlcNAc(b1-2)Man(a1-6)]Man(b1-4)GlcNAc(b1-4)GlcNAc
Method in brief: as §1

[8] = target: Neu5Ac(a2-6)Gal(b1-4)GlcNAc(b1-2)Man(a1-3)[Man(a1-6)]Man(b1-4)GlcNAc(b1-4)GlcNAc
Method in brief: as §1

[9] = target: Neu5Ac(a2-6)Gal(b1-4)GlcNAc(b1-2)Man(a1-3)[Neu5Ac(a2-3)Gal(b1-4)GlcNAc(b1-2)Man(a1-6)]Man(b1-4)GlcNAc(b1-4)GlcNAc
Method in brief: as §1

[10] = target: Neu5Ac(a2-6)Gal(b1-4)GlcNAc(b1-2)Man(a1-3)[Neu5Ac(a2-6)Gal(b1-4)GlcNAc(b1-2)Man(a1-6)]Man(b1-4)GlcNAc(b1-4)GlcNAc
Method in brief: as §1

[11] = target: Neu5Ac(a2-6)Gal(b1-4)GlcNAc(b1-2)Man(a1-3)[Neu5Ac(a2-6)Gal(b1-4)GlcNAc(b1-2)Man(a1-6)]Man(b1-4)GlcNAc(b1-4)[Fuc(a1-6)]GlcNAc
Method in brief: as §1

[12] = target: Neu5Ac(a2-6)Gal(b1-4)GlcNAc(b1-2)Man(a1-6)Man(b1-4)GlcNAc(b1-4)GlcNAc
Method in brief: as §1

[13] = target: Neu5Ac(a2-6)Gal(b1-4)GlcNAc(b1-2)Man(a1-6)[Gal(b1-4)GlcNAc(b1-2)Man(a1-3)]Man(b1-4)GlcNAc(b1-4)GlcNAc
Method in brief: as §1

[14] = target: Neu5Ac(a2-6)Gal(b1-4)GlcNAc(b1-2)Man(a1-6)[GlcNAc(b1-2)Man(a1-3)]Man(b1-4)GlcNAc(b1-4)GlcNAc
Method in brief: as §1

[15] = target: Neu5Ac(a2-6)Gal(b1-4)GlcNAc(b1-2)Man(a1-6)[Man(a1-3)]Man(b1-4)GlcNAc(b1-4)GlcNAc
Method in brief: as §1

[16] = target: Neu5Ac(a2-6)Gal(b1-4)GlcNAc(b1-2)[Neu5Ac(a2-6)Gal(b1-4)GlcNAc(b1-4)]Man(a1-3)[GlcNAc(b1-4)][Neu5Ac(a2-6)Gal(b1-4)GlcNAc(b1-2)[Neu5Ac(a2-6)Gal(b1-4)GlcNAc(b1-6)]Man(a1-6)]Man(b1-4)GlcNAc(b1-4)GlcNAc
Method in brief: as §1

[17] = target: Neu5Ac(a2-6)Gal(b1-4)GlcNAc(b1-2)[Neu5Ac(a2-6)Gal(b1-4)GlcNAc(b1-4)]Man(a1-3)[GlcNAc(b1-4)][Neu5Ac(a2-6)Gal(b1-4)GlcNAc(b1-4)Man(a1-6)]Man(b1-4)GlcNAc(b1-4)GlcNAc
Method in brief: as §1

[18] = target: Neu5Ac(a2-6)Gal(b1-4)GlcNAc(b1-2)[Neu5Ac(a2-6)Gal(b1-4)GlcNAc(b1-6)]Man(a1-6)[Neu5Ac(a2-6)Gal(b1-4)GlcNAc(b1-2)Man(a1-3)][GlcNAc(b1-4)]Man(b1-4)GlcNAc(b1-4)GlcNAc
Method in brief: as §1

[19] = target: Neu5Ac(a2-6)Gal(b1-4)GlcNAc(b1-3)Gal(b1-3)GlcNAc
Method in brief: as §1

[20] = target: Neu5Ac(a2-6)Gal(b1-4)GlcNAc(b1-3)Gal(b1-4)GlcNAc
Method in brief: as §1

[21] = target: Neu5Ac(a2-6)Gal(b1-4)GlcNAc(b1-3)Gal(b1-4)GlcNAc(b1-2)Man(a1-3)[Neu5Ac(a2-6)Gal(b1-4)GlcNAc(b1-3)Gal(b1-4)GlcNAc(b1-2)Man(a1-6)]GalNAc
Method in brief: as §1

[22] = target: Neu5Ac(a2-6)Gal(b1-4)GlcNAc(b1-3)Gal(b1-4)GlcNAc(b1-3)Gal(b1-4)GlcNAc
Method in brief: as §1

[23] = target: Neu5Ac(a2-6)Gal(b1-4)GlcNAc(b1-3)Gal(b1-4)GlcNAc(b1-3)Gal(b1-4)GlcNAc(b1-2)Man(a1-3)[Neu5Ac(a2-6)Gal(b1-4)GlcNAc(b1-3)Gal(b1-4)GlcNAc(b1-3)Gal(b1-4)GlcNAc(b1-2)Man(a1-6)]GalNAc
Method in brief: as §1

[24] = target: Neu5Ac(a2-6)Gal(b1-4)GlcNAc(b1-3)Gal(b1-4)GlcNAc(b1-3)GalNAc
Method in brief: as §1

[25] = target: Neu5Ac(a2-6)Gal(b1-4)GlcNAc(b1-3)Gal(b1-4)GlcNAc(b1-3)[Neu5Ac(a2-6)Gal(b1-4)GlcNAc(b1-3)Gal(b1-4)GlcNAc(b1-6)]GalNAc
Method in brief: as §1

[26] = target: Neu5Ac(a2-6)Gal(b1-4)GlcNAc(b1-3)Gal(b1-4)GlcNAc(b1-6)[Gal(b1-3)]GalNAc
Method in brief: as §1

[27] = target: Neu5Ac(a2-6)Gal(b1-4)GlcNAc(b1-3)Gal(b1-4)[Fuc(a1-3)]GlcNAc(b1-3)Gal(b1-4)[Fuc(a1-3)]GlcNAc
Method in brief: as §1

[28] = target: Neu5Ac(a2-6)Gal(b1-4)GlcNAc(b1-3)GalNAc
Method in brief: as §1

[29] = target: Neu5Ac(a2-6)Gal(b1-4)GlcNAc(b1-3)[Neu5Ac(a2-6)Gal(b1-4)GlcNAc(b1-6)]GalNAc
Method in brief: as §1

[30] = target: Neu5Ac(a2-6)Gal(b1-4)GlcNAc(b1-6)GalNAc
Method in brief: as §1

[31] = target: Neu5Ac(a2-6)Gal(b1-4)GlcNAc(b1-6)[Gal(b1-3)GlcNAc(b1-3)]Gal(b1-4)Glc
Method in brief: as §1

[32] = target: Neu5Ac(a2-6)Gal(b1-4)GlcNAc(b1-6)[Gal(b1-3)]GalNAc
Method in brief: as §1

[33] = target: Neu5Ac(a2-6)Gal(b1-4)GlcNAc6S
Method in brief: as §1

Neu5Ac(a2-6)GalNAc = target: Neu5Ac(a2-6)GalNAc
Method in brief: as §1

[34] = target: Neu5Ac(a2-6)GalNAc(b1-4)GlcNAc
Method in brief: as §1

[35] = target: Neu5Ac(a2-6)GalNAc(b1-4)GlcNAc6S
Method in brief: as §1

[36] = target: Neu5Ac(a2-6)GlcNAc(b1-4)GlcNAc
Method in brief: as §1

B1: truncCC1G-10077 (Coprinopsis cinerea) (protein)
chain: MHHHHHHHHPLPSPGPGWVLIQNGGTGKFLCSTPSGDIGTADGPETVYDYSVQWRFIQREYTGVYHVVNRATGAYLRQIGTSMPSIGLAEENDDELKDWWMLETYDNSEIGLASIISRWTGNVLDHYGGVSVQALDNNTENSYRSWAIIPARDWLTSFSLVNGQGGLCLAAQYAREETRLSTTANVNDFHAQWVFRKPSGSSGYTIQNKYNNHYVGGTSARWELVVCCNKYFGIRNTSTQKYLAIEDGQVTFQDQDMTDRKQCWELCSGRATDTSGNDYDLIYMDDDLLEVMIPWVGDKQGDLKHYIEKRATKKPPKDKGGWQLPAAGLIKKPKFNDIRQLLQELIEQWEWDVVNEEREQIQTLVSIDEAEARRLLGRRPHPDIVAAYQRSRSSTLFRIDRQGYFNIAGDRYVNIQGQYGDDSYFHIALPVGVRFGREQIRRFLRDSLDRSTSVTITPTTCKPPSGGPDYNRDPDSDGDNSWIKWTIAVVGTSAIKHSEL
- glycan array binding signal (z-score) [1]: -0.784
- glycan array binding signal (z-score) (Neu5Ac(a2-6)Gal(b1-4)Glc): -0.224
- glycan array binding signal (z-score) [2]: -0.58
- glycan array binding signal (z-score) [3]: -0.162
- glycan array binding signal (z-score) [4]: -0.073
- glycan array binding signal (z-score) [5]: -0.92
- glycan array binding signal (z-score) [6]: -0.318
- glycan array binding signal (z-score) [7]: -0.079
- glycan array binding signal (z-score) [8]: 0.481
- glycan array binding signal (z-score) [9]: -0.628
- glycan array binding signal (z-score) [10]: 0.197
- glycan array binding signal (z-score) [11]: 0.685
- glycan array binding signal (z-score) [12]: -0.572
- glycan array binding signal (z-score) [13]: -1.13
- glycan array binding signal (z-score) [14]: -0.42
- glycan array binding signal (z-score) [15]: -0.343
- glycan array binding signal (z-score) [16]: -0.318
- glycan array binding signal (z-score) [17]: 0.129
- glycan array binding signal (z-score) [18]: 0.06
- glycan array binding signal (z-score) [19]: -0.962
- glycan array binding signal (z-score) [20]: -0.51
- glycan array binding signal (z-score) [21]: 0.292
- glycan array binding signal (z-score) [22]: -0.137
- glycan array binding signal (z-score) [23]: 1.79
- glycan array binding signal (z-score) [24]: 2.07
- glycan array binding signal (z-score) [25]: -0.092
- glycan array binding signal (z-score) [26]: 0.521
- glycan array binding signal (z-score) [27]: 0.063
- glycan array binding signal (z-score) [28]: 0.54
- glycan array binding signal (z-score) [29]: 0.773
- glycan array binding signal (z-score) [30]: 3.21
- glycan array binding signal (z-score) [31]: -0.462
- glycan array binding signal (z-score) [32]: 0.215
- glycan array binding signal (z-score) [33]: -0.367
- glycan array binding signal (z-score) (Neu5Ac(a2-6)GalNAc): -0.759
- glycan array binding signal (z-score) [34]: -1.11
- glycan array binding signal (z-score) [35]: -0.305
- glycan array binding signal (z-score) [36]: -0.836
